In patent US20240309081A1 (QYUNS THERAPEUTICS, published 2024) one finds binding data, which are given here for one molecule.

No constants are given. Whether binding was seen depends on the method and setting. Some results given as binding are weak or reduced against the parent protein; the word gives no strength.

This assay concerns the target interleukin-33 of cynomolgus monkeys (cynomolgus monkey). The experiment in a line: SPR (Biacore T200), same method as Example 2. (In general: SPR reads the build-up and loss of mass on a sensor chip optically.)

B1: QX007N (HZD78-70) (antibody, human IgG1, kappa, V domains shown)
VH: EVQLVESGGGLVQPGGSLRLSCAASGFSLSSYHMIWVRQAPGKGLEWVGVIYPNSNIYYATWAKGRFTISRDNSKNTLYLQMNSLRAEDTAVYYCARTIYVHVYSALSIWGQGTLVTVSS
VL: AFQMTQSPSSVSASVGDRVTITCQASESVLNEVSWYQQKPGKAPKLLIYFASKLASGVPSRFSGSGSGTDFTLTISSLQPEDFATYYCQQDWSMDNIDNAFGGGTKVEIKR
notes: Humanized rabbit antibody, expressed in ExpiCHO-S cells and purified with Protein A; also called humanized 78#
As to B1, the binding entry is recorded as “binds”.
